Measured values published in PubChem BioAssay (NCATS).
Some of the results follow. These are further read-outs of the screen, such as a control signal, another cell line or another target. No call is given for them. Compounds called inactive in the main read-out are mostly missing here. Potencies come from curve fits of mixed quality, noted in brackets.

experiment: qHTS assay for small molecule antagonists of peroxisome proliferator-activated receptor gamma signaling (AID 588537); details: HEK293 PPARg-UAS-bla, beta-lactamase ratio, antagonist mode; measured here: W460 blue channel
Outline: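 HEK293 cells, PPAR-gamma-UAS-bla, 3000/well. Pre-incubation 6-6.5 h, 37 C. Compound titration with rosiglitazone 50 nM final, 16 h. CCF4 dye, 2 h RT, dual-emission fluorescence.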

Structure (SMILES)	AC50
FC(F)(F)c1ccc(Cl)cc1	0.00708 µM [falling, full curve, poor fit]
O=C(O)C(F)(F)C(F)(F)C(F)(F)C(F)(F)C(F)(F)C(F)(F)C(F)(F)C(F)(F)C(F)(F)F	22.4 µM [falling, partial curve, poor fit]
O=C(O)C(Br)CBr (stereo not given)	70.8 µM [rising, single point]
C1=CC2C3C=CC(C3)C2C1 (stereo not given)	70.8 µM [rising, single point]
Oc1cc(Cl)cc(Cl)c1Cl	39.8 µM [falling, partial curve]
CCOP(=O)(OCC)Oc1ccc([N+](=O)[O-])cc1	25.1 µM [falling, partial curve, poor fit]
CC(C)(OOC(C)(C)c1ccccc1)c1ccccc1	0.00251 µM [falling, full curve, poor fit]
C=CC=O	50.1 µM [rising, single point]
CCCSP(=O)(OCC)Oc1ccc(Br)cc1Cl (stereo not given)	44.7 µM [falling, single point]
O=C(O)c1cccc(Cl)c1	0.00501 µM [falling, full curve, poor fit]

Molecules listed so far that contain fluorine, in the order listed:
Structure (SMILES)	AC50
FC(F)(F)c1ccc(Cl)cc1	0.00708 µM [falling, full curve, poor fit]
O=C(O)C(F)(F)C(F)(F)C(F)(F)C(F)(F)C(F)(F)C(F)(F)C(F)(F)C(F)(F)C(F)(F)F	22.4 µM [falling, partial curve, poor fit]
